Source: PMC6340896
These are yes or no findings as the source states them, for the method shown. In cells and extracts the contact can be indirect. A yes stands for co-enrichment or nearness to the bait. Other partners may have been found. Tags and fused reporters may be left off the sequences shown.

T1: Rpf1 fused to a C-terminal tandem affinity purification (TAP) tag (S. cerevisiae (endogenous in BY4741)) (UniProt P38805)
T1 sequence: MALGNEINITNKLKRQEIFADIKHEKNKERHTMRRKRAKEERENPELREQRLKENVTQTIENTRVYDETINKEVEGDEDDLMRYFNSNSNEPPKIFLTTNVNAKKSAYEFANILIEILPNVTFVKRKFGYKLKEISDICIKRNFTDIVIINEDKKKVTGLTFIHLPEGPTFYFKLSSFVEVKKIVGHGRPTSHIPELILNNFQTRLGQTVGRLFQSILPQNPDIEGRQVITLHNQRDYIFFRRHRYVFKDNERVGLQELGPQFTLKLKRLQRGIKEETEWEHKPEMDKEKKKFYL


molecular target: T1, Rpf1 fused to a C-terminal tandem affinity purification (TAP) tag (S. cerevisiae (endogenous in BY4741)); assay: affinity purification with mass spectrometry; Rpf1-TAP pre-60S particle from yeast lysate on IgG-coated Dynabeads, released with TEV protease; composition told by mass spectrometry, by cross-linking with mass spectrometry and by the proteins modelled in the map; the particle holds rRNA

| Binder | binding |
| --- | --- |
| Dbp10 (protein, UniProt Q12389 1-995) MAGVQKRKRDLEDQDDNGSEEDDIAFDIANEIALNDSESDANDSDSEVEADYGPNDVQDVIEYSSDEEEGVNNKKKAENKDIKKKKNSKKEIAAFPMLEMSDDENNASGKTQTGDDEDDVNEYFSTNNLEKTKHKKGSFPSFGLSKIVLNNIKRKGFRQPTPIQRKTIPLILQSRDIVGMARTGSGKTAAFILPMVEKLKSHSGKIGARAVILSPSRELAMQTFNVFKDFARGTELRSVLLTGGDSLEEQFGMMMTNPDVIIATPGRFLHLKVEMNLDLKSVEYVVFDEADRLFEMGFQEQLNELLASLPTTRQTLLFSATLPNSLVDFVKAGLVNPVLVRLDAETKVSENLEMLFLSSKNADREANLLYILQEIIKIPLATSEQLQKLQNSNNEADSDSDDENDRQKKRRNFKKEKFRKQKMPAANELPSEKATILFVPTRHHVEYISQLLRDCGYLISYIYGTLDQHARKRQLYNFRAGLTSILVVTDVAARGVDIPMLANVINYTLPGSSKIFVHRVGRTARAGNKGWAYSIVAENELPYLLDLELFLGKKILLTPMYDSLVDVMKKRWIDEGKPEYQFQPPKLSYTKRLVLGSCPRLDVEGLGDLYKNLMSSNFDLQLAKKTAMKAEKLYYRTRTSASPESLKRSKEIISSGWDAQNAFFGKNEEKEKLDFLAKLQNRRNKETVFEFTRNPDDEMAVFMKRRRKQLAPIQRKATERRELLEKERMAGLSHSIEDEILKGDDGETGYTVSEDALKEFEDADQLLEAQENENKKKKKPKSFKDPTFFLSHYAPAGDIQDKQLQITNGFANDAAQAAYDLNSDDKVQVHKQTATVKWDKKRKKYVNTQGIDNKKYIIGESGQKIAASFRSGRFDDWSKARNLKPLKVGSRETSIPSNLLEDPSQGPAANGRTVRGKFKHKQMKAPKMPDKHRDNYYSQKKKVEKALQSGISVKGYNNAPGLRSELKSTEQIRKDRIIAEKKRAKNARPSKKRKF | binds |
| Mak16 (protein, UniProt P10962 1-306) MSDEIVWQVINQSFCSHRIKAPNGQNFCRNEYNVTGLCTRQSCPLANSKYATVKCDNGKLYLYMKTPERAHTPAKLWERIKLSKNYTKALQQIDEHLLHWSKFFRHKCKQRFTKLTQVMITERRLALREEERHYVGVAPKVKRREQNRERKALVAAKIEKAIEKELMDRLKSGAYGDKPLNVDEKVWKKIMGQMEEENSQDEEEDWDEEEESDDGEVEYVADDGEGEYVDVDDLEKWLADSDREASSASESESDSESESDSDSDEENKNSAKRRKKGTSAKTKRPKVEIEYEEEHEVQNAEQEVAQ | binds |
| Erb1 (protein, UniProt Q04660 1-807) MMAKNNKTTEAKMSKKRAASEESDVEEDEDKLLSVDGLIDAEASESDEDDDEYESAVEEKESSSDKEAQDDSDDDSDAELNKLLAEEEGDGEEDYDSSEFSDDTTSLTDRLSGVKLQTIVDPNIYSKYADGSDRIIKPEINPVYDSDDSDAETQNTIGNIPLSAYDEMPHIGYDINGKRIMRPAKGSALDQLLDSIELPEGWTGLLDKNSGSSLNLTKEELELISKIQRNEQTDDSINPYEPLIDWFTRHEEVMPLTAVPEPKRRFVPSKNEAKRVMKIVRAIREGRIIPPKKLKEMKEKEKIENYQYDLWGDSTETNDHVMHLRAPKLPPPTNEESYNPPEEYLLSPEEKEAWENTEYSERERNFIPQKYSALRKVPGYGESIRERFERSLDLYLAPRVRKNKLNIDPNSLIPELPSPKDLRPFPIRCSTIYAGHKGKVRTLSIDPSGLWLATGSDDGTVRVWEILTGREVYRTTLIDDEENPDYHIECIEWNPDANNGILAVAVGENIHLIVPPIFGYDIENNGKTKIEDGFGYDTFGTVKKSNLEVNENGDGDEDGENESAKNAVKKQVAQWNKPSQKQLEKDICITISCKKTVKKLSWHRKGDYFVTVQPDSGNTSVLIHQVSKHLTQSPFKKSKGIIMDAKFHPFKPQLFVCSQRYVRIYDLSQQILVKKLLPGARWLSKIDIHPRGDNLIASSFDKRVLWHDLDLASTPYKTLRYHEKAVRSVNFHKKLPLFSSAADDGTIHVFHATVYDDMMKNPMIVPLKKLTGHKVINSLGVLDAIWHPREAWLFSAGADNTARLWTT | binds |
| Mak11 (protein, UniProt P20484 1-414) MSAIGDKNQFRIIVGSYEHNILCLSLDIPNQKENDAAKTPHFMPIFHFQAHSLSIKCLAVSRRYLVSGSNDEHIRIYDLQKRKELGTLLSHQGSITALQFSHPASSSEDAAVSKGSKNSKWLLSASEDHKIMVWRVKDWETVGTLKGHTARVNDVDIHPTNRIAISVSDDHSIRLWNLMTLRNAAVLKLRKYNTNGTCVRWLGAKGDYFAVGLRDRVLIYETGSAKVFKEIVFQRKTLMHIETHILPFDNKEYLSVGISDGNVHFYPCEELFEKVEENEKQEDDDDKEDISPAFSLLGHTNRIKDFKFYTNEFGTYLVTIGSDGKIVVWDMSTKEQVAVYDCGERLNCLTLCDESIEKYNTMKKRDAETADIGDQSEVESDTEELKKIMFGEKKKLNKKKRKQLKKSKVSVELE | binds |
| Drs1 (protein, UniProt P32892 1-752) MVVGTKKYSNLDFVPTISDSEDDVPILDSSDDEKVEAKKTTKKRKGKNNKKKVSEGDNLDEDVHEDLDAGFKFDLDADDTTSNFQGWNFLAEGESNKDDAEAFVKKDVDLDKIIRRKGGLVKMAHIDSKQEEETEKEKVEKENDSDDEELAMDGFGMGAPMNNGDENQSEEEEEEEEKEEEEEEEEEQEEMTLEKGGKDDEIDEEDDSEEAKADFYAPETEGDEAKKQMYENFNSLSLSRPVLKGLASLGYVKPSPIQSATIPIALLGKDIIAGAVTGSGKTAAFMIPIIERLLYKPAKIASTRVIVLLPTRELAIQVADVGKQIARFVSGITFGLAVGGLNLRQQEQMLKSRPDIVIATPGRFIDHIRNSASFNVDSVEILVMDEADRMLEEGFQDELNEIMGLLPSNRQNLLFSATMNSKIKSLVSLSLKKPVRIMIDPPKKAATKLTQEFVRIRKRDHLKPALLFNLIRKLDPTGQKRIVVFVARKETAHRLRIIMGLLGMSVGELHGSLTQEQRLDSVNKFKNLEVPVLICTDLASRGLDIPKIEVVINYDMPKSYEIYLHRVGRTARAGREGRSVTFVGESSQDRSIVRAAIKSVEENKSLTQGKALGRNVDWVQIEETNKLVESMNDTIEDILVEEKEEKEILRAEMQLRKGENMLKHKKEIQARPRRTWFQSESDKKNSKVLGALSRNKKVTNSKKRKREEAKADGNGARSYRKTKTDRIADQERTFKKQKSTNSNKKKGFKSRR | binds |

Second part, the binder after the results:

| binding | Binder |
| --- | --- |
| binds | Rlp7 (protein, UniProt P40693 1-322) MSSTQDSKAQTLNSNPEILLRKRRNADRTRIERQELAKKKREEQIKKKRSNKNKFVRAESIVAKTLATSREKERIKRVSILEDKKAKNETQHIASGKDFILKITEKANGAEENSVDLEETEEEEDDGLIREKTTYDGKPALLFIVRVRGPLAVNIPNKAFKILSLLRLVETNTGVFVKLTKNVYPLLKVIAPYVVIGKPSLSSIRSLIQKRGRIIYKGENEAEPHEIVLNDNNIVEEQLGDHGIICVEDIIHEIATMGESFSVCNFFLQPFKLNREVSGFGSLNRLRKIKQREAESRTRQFSNAATAPVIEVDIDSLLAKLN |
| binds | Nop2 (protein, UniProt P40991 1-618) MGSRRHKNKQAAPPTLEEFQARKEKKANRKLEKGKRPSTTQGDEVSDRKKKKSKPFKKSRKEEEEVVEEDKDLPEVDLEELSKARKSLFDDEEDDDEAGLVDEELKDEFDLEQEYDYDEDEDNDAHPIFSDDDDEADLEELNAQNMEALSKKLDEEEAEEAEEAEMELVEAENMQPRADILPTEEQEEMMAQETPNLTSTRTRMIEIVKVLENFKTLGAEGRSRGEYVDRLLKDICEYFGYTPFLAEKLFNLFSPAEAMEFFEANEIARPITIRTNTLKTRRRDLAQTLVNRGVNLQPIGSWTKVGLQIFDSQVPIGATPEYLAGHYILQAASSFLPVIALDPHENERILDMAAAPGGKTTYISAMMKNTGCVFANDANKSRTKSLIANIHRLGCTNTIVCNYDAREFPKVIGGFDRILLDAPCSGTGVIGKDQSVKVSRTEKDFIQIPHLQKQLLLSAIDSVDCNSKHGGVIVYSTCSVAVEEDEAVIDYALRKRPNVKLVDTGLAIGKEAFTSYRGKKFHPSVKLARRYYPHTYNVDGFFVAKFQKIGPSSFDDNQASAKEKETAARKEALEEGIIHSDFATFEDEEDDKYIEKSVKNNLLKKGVNPKAKRPSNEK |
| binds | Ytm1 (protein, UniProt Q12024 1-460) MTEDKSQVKIRFFTREKDELLHVQDTPMYAPISLKRYGLSEIVNHLLGSEKPVPFDFLIEGELLRTSLHDYLTKKGLSSEASLNVEYTRAILPPSYLNSFSNEDWVSSLDVGDGSKHIISGSYDGIVRTWDLSGNVQKQYSGHSGPIRAVKYISNTRLVSAGNDRTLRLWKTKNDDLKLTSQQQAQEDDDDEVNIEDGKTLAILEGHKAPVVSIDVSDNSRILSASYDNSIGFWSTIYKEMTVVDPLEDINNPNNKISTAARKRRKLTMKDGTIRRRAPLSLLESHTAPVEQVIFDSTDNTVGYSVSQDHTIKTWDLVTARCIDTRTTSYSLLSIAQLSTLNLLACGSSARHITLHDPRVGASSKVTQQQLIGHKNFVSSLDTCPENEYILCSGSHDGTVKVWDVRSTSPMYTITREDKSVQKGVNDKVFAVKWAEKVGIISAGQDKKIQINKGDNIFKN |
| binds | Nsa1 (protein, UniProt P53136 1-463) MRLLVSCVDSGSIKEVLCNIGTDTSVQSALQPFHVAPHLAEGLKAYVDRMWVISEDEAILARNSGVVELVKISKHLKENEALQVDPKGESKNEKSLSDDLPKFDISEFEITSSVSDLFDDAKLESLSSKSVKRTKLVDGFVTLCPIKKDSSNNTFVAATKSGLLHIIKKGEDKKLIKLASLGLKAPVEFLQLYDLEDTDTDKYIFAYGGEENLIKLVEIDSSFQSLKQIWEAKNVKNDRLDMRVPVWPMALRFLEPSPGKTEKGKLNYQFAAITRWSHLTKYSTQHGRKPFAQIDLLPNREPLSQMEVFDAKGENVVSSLGNFQSETFNELNVITTDYKKNVFKFDGNGRMLGKVGRDDITGSSTYIHVHDGKYLLQGGLDRYVRIFDIKTNKMLVKVYVGSRINFIVMLDDVEIEMPLSPSAKAAKGKQKRKVTELEEDADELWNKLEGKVAASKASKKSKI |
| binds weakly | Nop53 (protein, UniProt Q12080 1-455) MAPTNLTKKPSQYKQSSRKGKKAWRKNIDLSDVEQYMEKKIDHEITHGTSDITSLQNDALFHVDVEGDEILKNKLIKRKQIKKVLKSKEILDAVKTNSKIAALNHHKNSSGNPNKIQGVSKHELKKLMALAGRVHGESKIKNRVAKDGLVKTTAGDLWGEESNSKKQKVKLPSGIKLDVEKKDQIPEELLKKSTTSWSTASVRPSTLDIEPIAVKEFTEIPHAGKSYNPNNKAWSELINKEYKEEKAREDERIALEKYKERIRHLMETLDDNEEEESSSNEEEEEEEEENENENESTQCSGSDKEIKLSINKPVKNKKKTKYQRNKAKRHEEKVKLQQELKELRQRVKDLEEVINSEETEILSAIESDSNKVKKSKKNKKHKLGTKYSVIDERLEIKFSDELSDSLRKLKPEGNLLYDTVRKLQSSGKVETRVPVRKGRKYKQKITEKWTHKDFK |
